From the supplement of paper PMC10849652 come the findings set out here.

The chains behind the UniProt entries cited, without tags or fusion partners. Where a name states a change or a piece, a line headed by the entry shows the natural chain unless it says otherwise.
UniProt P23919: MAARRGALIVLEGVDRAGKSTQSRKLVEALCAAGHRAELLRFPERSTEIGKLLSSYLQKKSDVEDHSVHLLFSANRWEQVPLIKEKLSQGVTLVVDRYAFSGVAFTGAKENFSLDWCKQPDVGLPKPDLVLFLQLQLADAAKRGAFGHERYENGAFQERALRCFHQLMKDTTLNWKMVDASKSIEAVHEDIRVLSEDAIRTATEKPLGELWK
UniProt P47813, whole entry, looked up: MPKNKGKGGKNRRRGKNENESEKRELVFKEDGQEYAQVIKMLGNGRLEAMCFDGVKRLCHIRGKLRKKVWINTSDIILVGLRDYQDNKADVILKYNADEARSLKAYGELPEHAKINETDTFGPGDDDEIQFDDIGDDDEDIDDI
UniProt Q99956: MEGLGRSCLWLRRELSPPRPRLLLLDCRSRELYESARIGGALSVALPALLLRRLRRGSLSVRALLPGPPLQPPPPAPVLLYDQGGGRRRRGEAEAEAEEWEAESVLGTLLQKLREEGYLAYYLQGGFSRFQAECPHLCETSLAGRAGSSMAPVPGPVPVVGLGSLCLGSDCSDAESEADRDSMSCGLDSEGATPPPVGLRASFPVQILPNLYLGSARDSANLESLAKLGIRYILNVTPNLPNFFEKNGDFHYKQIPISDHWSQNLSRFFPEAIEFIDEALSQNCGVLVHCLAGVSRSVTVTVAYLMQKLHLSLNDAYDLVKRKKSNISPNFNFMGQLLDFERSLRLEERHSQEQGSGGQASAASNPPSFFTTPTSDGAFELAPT
UniProt Q96DC8: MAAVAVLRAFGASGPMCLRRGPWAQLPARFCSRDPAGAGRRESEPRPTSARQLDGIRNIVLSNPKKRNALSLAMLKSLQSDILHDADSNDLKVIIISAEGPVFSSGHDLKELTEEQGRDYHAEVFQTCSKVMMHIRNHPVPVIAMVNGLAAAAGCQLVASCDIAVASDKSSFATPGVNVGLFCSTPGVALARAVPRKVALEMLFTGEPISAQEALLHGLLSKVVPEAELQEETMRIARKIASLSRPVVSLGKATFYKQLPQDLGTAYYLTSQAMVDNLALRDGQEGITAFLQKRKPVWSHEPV
UniProt Q9BQC3: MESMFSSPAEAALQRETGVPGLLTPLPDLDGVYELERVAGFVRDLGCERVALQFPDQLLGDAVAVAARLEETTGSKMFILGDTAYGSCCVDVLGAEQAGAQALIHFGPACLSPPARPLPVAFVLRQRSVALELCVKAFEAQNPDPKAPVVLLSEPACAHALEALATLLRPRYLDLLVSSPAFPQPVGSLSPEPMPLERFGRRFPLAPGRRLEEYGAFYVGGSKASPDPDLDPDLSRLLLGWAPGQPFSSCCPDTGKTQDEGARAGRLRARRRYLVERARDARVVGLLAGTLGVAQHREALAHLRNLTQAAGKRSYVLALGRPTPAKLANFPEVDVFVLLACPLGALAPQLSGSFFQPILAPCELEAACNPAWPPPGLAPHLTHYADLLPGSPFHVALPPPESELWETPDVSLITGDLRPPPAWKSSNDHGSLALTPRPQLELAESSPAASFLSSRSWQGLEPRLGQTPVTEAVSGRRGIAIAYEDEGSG
UniProt Q9BVJ7: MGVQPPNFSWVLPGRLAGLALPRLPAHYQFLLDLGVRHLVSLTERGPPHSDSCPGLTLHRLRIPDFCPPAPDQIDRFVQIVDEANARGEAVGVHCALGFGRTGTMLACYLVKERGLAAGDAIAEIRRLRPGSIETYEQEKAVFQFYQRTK
UniProt Q7Z2Z2: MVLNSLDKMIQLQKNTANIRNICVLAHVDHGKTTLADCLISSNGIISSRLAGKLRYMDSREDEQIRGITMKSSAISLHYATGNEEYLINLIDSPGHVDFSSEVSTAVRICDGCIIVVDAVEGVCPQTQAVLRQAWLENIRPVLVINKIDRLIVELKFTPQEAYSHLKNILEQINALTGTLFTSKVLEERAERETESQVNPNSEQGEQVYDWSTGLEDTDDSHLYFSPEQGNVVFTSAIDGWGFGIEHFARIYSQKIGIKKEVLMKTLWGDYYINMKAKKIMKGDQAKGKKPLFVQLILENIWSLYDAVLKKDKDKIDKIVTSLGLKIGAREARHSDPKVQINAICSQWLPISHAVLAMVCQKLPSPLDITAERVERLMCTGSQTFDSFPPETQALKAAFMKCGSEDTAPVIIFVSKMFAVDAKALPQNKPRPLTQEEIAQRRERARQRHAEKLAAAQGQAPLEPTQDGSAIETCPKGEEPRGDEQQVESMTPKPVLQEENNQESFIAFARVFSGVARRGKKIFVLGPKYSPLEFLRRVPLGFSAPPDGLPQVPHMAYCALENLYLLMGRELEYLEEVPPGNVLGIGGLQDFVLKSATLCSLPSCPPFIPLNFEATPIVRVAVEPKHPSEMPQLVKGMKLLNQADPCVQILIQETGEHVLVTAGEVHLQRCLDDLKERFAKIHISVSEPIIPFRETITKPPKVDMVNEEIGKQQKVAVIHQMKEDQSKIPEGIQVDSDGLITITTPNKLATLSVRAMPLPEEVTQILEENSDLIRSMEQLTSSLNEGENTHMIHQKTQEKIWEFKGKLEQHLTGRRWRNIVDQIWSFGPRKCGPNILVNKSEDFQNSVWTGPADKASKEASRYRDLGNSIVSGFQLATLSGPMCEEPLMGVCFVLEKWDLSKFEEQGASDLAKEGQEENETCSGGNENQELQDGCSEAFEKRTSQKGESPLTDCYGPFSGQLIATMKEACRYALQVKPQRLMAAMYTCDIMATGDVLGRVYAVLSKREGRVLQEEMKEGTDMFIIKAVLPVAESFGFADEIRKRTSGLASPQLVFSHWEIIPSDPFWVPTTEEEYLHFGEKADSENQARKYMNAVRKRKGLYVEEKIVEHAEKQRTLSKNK
UniProt O60869: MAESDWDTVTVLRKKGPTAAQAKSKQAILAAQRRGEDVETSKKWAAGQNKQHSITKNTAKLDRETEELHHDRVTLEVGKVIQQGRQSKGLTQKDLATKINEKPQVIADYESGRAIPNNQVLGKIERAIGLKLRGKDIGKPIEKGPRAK
UniProt O00716: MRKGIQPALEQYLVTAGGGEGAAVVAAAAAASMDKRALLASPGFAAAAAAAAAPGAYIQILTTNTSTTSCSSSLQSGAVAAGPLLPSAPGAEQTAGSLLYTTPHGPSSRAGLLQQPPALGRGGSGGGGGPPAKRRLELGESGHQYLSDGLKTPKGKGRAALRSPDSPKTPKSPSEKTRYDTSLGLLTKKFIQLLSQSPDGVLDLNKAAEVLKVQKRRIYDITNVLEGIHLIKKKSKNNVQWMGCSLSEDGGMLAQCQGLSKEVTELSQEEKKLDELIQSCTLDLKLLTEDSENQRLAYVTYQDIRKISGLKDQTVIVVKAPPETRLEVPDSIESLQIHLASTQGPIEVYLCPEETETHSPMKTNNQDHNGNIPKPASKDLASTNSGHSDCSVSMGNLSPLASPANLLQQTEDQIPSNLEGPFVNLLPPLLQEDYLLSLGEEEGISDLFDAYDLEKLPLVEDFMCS
UniProt P33316: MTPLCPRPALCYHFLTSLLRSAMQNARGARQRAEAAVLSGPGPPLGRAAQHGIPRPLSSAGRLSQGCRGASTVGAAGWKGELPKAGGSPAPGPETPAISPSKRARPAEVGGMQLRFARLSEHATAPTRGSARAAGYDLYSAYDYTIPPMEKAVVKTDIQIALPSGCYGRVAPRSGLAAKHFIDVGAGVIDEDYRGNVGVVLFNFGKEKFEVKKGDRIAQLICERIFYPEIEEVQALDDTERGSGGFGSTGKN
UniProt Q14126: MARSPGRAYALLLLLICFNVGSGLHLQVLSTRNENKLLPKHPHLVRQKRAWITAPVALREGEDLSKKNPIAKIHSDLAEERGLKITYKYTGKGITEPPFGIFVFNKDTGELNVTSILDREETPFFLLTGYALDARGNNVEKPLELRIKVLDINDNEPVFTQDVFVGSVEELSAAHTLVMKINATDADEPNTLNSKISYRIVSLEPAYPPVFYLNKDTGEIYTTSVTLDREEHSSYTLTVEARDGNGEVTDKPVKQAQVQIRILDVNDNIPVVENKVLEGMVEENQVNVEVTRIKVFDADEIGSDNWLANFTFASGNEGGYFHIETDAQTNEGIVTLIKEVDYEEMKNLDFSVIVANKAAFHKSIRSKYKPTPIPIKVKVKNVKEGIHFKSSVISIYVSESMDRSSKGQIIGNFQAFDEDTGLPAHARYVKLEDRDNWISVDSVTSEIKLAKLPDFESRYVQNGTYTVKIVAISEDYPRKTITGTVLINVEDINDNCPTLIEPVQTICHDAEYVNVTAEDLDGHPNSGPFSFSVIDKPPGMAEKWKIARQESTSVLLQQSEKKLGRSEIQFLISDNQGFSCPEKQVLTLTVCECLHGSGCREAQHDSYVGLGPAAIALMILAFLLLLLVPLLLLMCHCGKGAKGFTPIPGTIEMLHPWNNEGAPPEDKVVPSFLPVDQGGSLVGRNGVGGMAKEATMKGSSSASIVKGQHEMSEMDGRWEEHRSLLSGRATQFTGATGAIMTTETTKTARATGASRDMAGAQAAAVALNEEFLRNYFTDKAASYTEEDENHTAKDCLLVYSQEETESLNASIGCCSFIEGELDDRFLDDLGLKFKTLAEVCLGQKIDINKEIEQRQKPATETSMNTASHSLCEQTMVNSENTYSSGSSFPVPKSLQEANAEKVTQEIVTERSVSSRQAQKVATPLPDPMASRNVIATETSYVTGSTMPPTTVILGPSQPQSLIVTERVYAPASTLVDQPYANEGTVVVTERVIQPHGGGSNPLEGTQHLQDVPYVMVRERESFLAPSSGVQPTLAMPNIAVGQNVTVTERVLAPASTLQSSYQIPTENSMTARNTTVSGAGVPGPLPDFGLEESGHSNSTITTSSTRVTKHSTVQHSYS
UniProt Q92785, whole entry, looked up: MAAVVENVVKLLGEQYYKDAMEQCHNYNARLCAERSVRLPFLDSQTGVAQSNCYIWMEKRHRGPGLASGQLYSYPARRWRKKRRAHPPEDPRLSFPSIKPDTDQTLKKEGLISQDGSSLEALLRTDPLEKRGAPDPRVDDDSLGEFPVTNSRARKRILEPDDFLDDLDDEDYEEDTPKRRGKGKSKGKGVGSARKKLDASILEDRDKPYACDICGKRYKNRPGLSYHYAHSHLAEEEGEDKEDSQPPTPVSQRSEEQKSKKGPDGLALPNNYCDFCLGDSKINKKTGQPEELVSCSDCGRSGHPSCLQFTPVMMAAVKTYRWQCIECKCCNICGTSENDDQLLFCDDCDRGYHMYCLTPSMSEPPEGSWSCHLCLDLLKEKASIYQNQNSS
UniProt Q9BZQ6: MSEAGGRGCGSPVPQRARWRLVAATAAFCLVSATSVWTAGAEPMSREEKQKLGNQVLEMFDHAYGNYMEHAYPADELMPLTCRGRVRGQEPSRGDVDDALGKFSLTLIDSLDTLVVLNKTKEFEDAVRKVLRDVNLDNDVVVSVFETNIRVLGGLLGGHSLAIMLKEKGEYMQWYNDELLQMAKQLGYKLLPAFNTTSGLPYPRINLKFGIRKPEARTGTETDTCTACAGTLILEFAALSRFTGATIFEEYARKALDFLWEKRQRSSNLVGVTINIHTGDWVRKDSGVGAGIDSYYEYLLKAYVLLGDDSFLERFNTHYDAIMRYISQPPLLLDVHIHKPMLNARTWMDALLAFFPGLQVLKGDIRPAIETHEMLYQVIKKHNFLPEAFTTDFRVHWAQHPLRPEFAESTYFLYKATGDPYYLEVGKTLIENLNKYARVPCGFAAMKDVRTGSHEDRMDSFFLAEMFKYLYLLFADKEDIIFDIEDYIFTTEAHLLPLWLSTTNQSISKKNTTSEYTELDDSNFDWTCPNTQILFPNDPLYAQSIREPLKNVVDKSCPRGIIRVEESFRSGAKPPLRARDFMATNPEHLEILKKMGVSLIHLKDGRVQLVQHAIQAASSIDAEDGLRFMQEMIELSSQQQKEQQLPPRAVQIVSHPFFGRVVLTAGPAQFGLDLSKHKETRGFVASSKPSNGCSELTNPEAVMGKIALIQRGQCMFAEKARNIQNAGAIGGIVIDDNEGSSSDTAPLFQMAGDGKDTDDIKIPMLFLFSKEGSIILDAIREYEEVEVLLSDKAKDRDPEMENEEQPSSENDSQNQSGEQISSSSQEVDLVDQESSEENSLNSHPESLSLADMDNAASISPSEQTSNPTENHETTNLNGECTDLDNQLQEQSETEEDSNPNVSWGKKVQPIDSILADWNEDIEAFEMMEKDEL
UniProt P26641, whole entry, looked up: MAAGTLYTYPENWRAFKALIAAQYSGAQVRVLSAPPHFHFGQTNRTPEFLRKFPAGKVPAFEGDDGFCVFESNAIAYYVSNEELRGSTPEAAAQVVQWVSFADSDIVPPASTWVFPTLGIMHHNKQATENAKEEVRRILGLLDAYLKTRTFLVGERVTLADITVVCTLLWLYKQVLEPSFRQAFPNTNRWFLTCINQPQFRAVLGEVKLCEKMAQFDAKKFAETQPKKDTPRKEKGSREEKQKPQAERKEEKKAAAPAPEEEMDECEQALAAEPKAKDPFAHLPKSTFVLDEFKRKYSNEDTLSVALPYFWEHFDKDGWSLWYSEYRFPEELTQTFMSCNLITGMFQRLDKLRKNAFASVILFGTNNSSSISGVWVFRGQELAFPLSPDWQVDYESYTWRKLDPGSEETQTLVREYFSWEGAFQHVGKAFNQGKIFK

The list shows a part of the results.

Compound in one assay: CC[C@@H]1C(=O)N(C)c2cnc(Nc3ccc(C(=O)NC4CCN(C)CC4)cc3OC)nc2N1C1CCCC1
The experiment in a line: log2 fold change, soluble protein after heating vs DMSO (PISA); higher = thermal stabilisation; K562 lysate, 10 uM; active = over 0.2 and 3.5 SD of the protein, either way, in both replicates (recomputed). A digest of the protocol:
(§1)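 K562 pellets were dounce-homogenised in PBS pH 7.4 containing 1 mM MgCl2, and the crude extract, at 1 mg/mL protein, was exposed to 10 μM compound for 30 min. Aliquots were heated for 3 min across 48°C-58°C, pooled, brought to 0.5% NP-40 at 4°C and spun at 21,000xg for 90 min, with the supernatant taken as soluble protein. TMTpro 16plex LC-MS/MS with equalised channel sums quantified that protein. Values are log-two fold changes in thermal stability relative to solvent controls, taken from duplicates.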
On to EEF1A1P5 (UniProt Q5VTE0), for which the log2 fold change is inactive: 0.004.
On the same count and under the same terms, next, DRG2 (UniProt P55039): inactive: -0.044; DTYMK (UniProt P23919): inactive: -0.062; EARS2 (UniProt Q5JPH6): inactive: 0.041.
For EIF1 (UniProt P41567), the log2 fold change was inactive: 0.053.
Still for that read-out and setting: next, EEF2 (UniProt P13639): inactive: 0.014.
Take EIF1AX (UniProt P47813): the log2 fold change was inactive: 0.013.
On the same count and under the same terms, with ECH1 (UniProt Q13011) the figure was inactive: -0.019; with EEF1B2 (UniProt P24534), inactive: -0.007; with DUSP9 (UniProt Q99956), inactive: -0.023.
The same measure, in the same setting: next, ECHDC3 (UniProt Q96DC8): inactive: -0.02; DR1 (UniProt Q01658): inactive: 0.095; DPP7 (UniProt Q9UHL4): inactive: 0.044.
The same measure, in the same setting: with DYNLT1 (UniProt P63172) the figure was inactive: -0.012; with DPH2 (UniProt Q9BQC3), inactive: 0.012.
For the target DUSP23 (UniProt Q9BVJ7), the log2 fold change is inactive: -0.016.
Same read-out and setting: with DYNC1H1 (UniProt Q14204) the figure was inactive: -0.032.
The same measure, in the same setting: next, EFL1 (UniProt Q7Z2Z2): inactive: -0.031.
Still for that read-out and setting: next, DPY19L1, A0A1B0GW05: inactive: -0.008; EDF1 (UniProt O60869): inactive: 0.062.
As to EHMT2 (UniProt A2ABF8), the log2 fold change is inactive: -0.072.
Consider E2F3 (UniProt O00716), for which the log2 fold change is inactive: 0.15.
The same measure, in the same setting: with EEF1AKMT2, A0A494BZY7 the figure was inactive: -0.046; with E2F4 (UniProt Q16254), inactive: 0.009; with DUSP12 (UniProt Q9UNI6), inactive: -0.033.
The same measure, in the same setting: with DUT (UniProt P33316) the figure was inactive: 0.031.
On the same count and under the same terms, next, DSG2 (UniProt Q14126): inactive: 0.02.
Regarding EIF1AD (UniProt Q8N9N8), the log2 fold change was inactive: -0.08.
On the same count and under the same terms, with DPF2 (UniProt Q92785) the figure was inactive: -0.037.
On to EEF1AKNMT (UniProt Q8N6R0), for which the log2 fold change is inactive: -0.08.
Still for that read-out and setting: with EDEM3 (UniProt Q9BZQ6) the figure was inactive: -0.014; with EEF1G isoform 2 (UniProt P26641), inactive: -0.081.

Compound in another assay: CC[C@@H]1C(=O)N(C)c2cnc(Nc3ccc(C(=O)N[C@H]4CC[C@H](N5CCN(CC6CC6)CC5)CC4)cc3OC)nc2N1C(C)C [volasertib]
The description is as above. A digest of the protocol: as §1
For EEF1A1P5 (UniProt Q5VTE0), the log2 fold change is inactive: -0.022.
Still for that read-out and setting: next, DRG2 (UniProt P55039): inactive: -0.02; DTYMK (UniProt P23919): inactive: 0.006.
Turning to EARS2 (UniProt Q5JPH6), the log2 fold change is inactive: -0.054.
Consider EIF1 (UniProt P41567), for which the log2 fold change is inactive: 0.023.
On the same count and under the same terms, next, EEF2 (UniProt P13639): inactive: -0.001; EIF1AX (UniProt P47813): inactive: 0.017; ECH1 (UniProt Q13011): inactive: 0.041.
On the same count and under the same terms, next, EEF1B2 (UniProt P24534): inactive: 0.013; DUSP9 (UniProt Q99956): inactive: -0.004; ECHDC3 (UniProt Q96DC8): inactive: 0.022.
Still for that read-out and setting: next, DR1 (UniProt Q01658): inactive: 0.039; DPP7 (UniProt Q9UHL4): inactive: 0.036; DYNLT1 (UniProt P63172): inactive: 0.046.
In the case of DPH2 (UniProt Q9BQC3), the log2 fold change is inactive: 0.
With DUSP23 (UniProt Q9BVJ7), the log2 fold change is inactive: 0.049.
Regarding DYNC1H1 (UniProt Q14204), the log2 fold change was inactive: -0.053.
The same measure, in the same setting: with EFL1 (UniProt Q7Z2Z2) the figure was inactive: -0.02; with DPY19L1, A0A1B0GW05, inactive: -0.008.
Same read-out and setting: with EDF1 (UniProt O60869) the figure was inactive: 0.036.
Same read-out and setting: with EHMT2 (UniProt A2ABF8) the figure was inactive: -0.056.
For the target E2F3 (UniProt O00716), the log2 fold change was inactive: 0.082.
Same read-out and setting: next, EEF1AKMT2, A0A494BZY7: inactive: -0.029; E2F4 (UniProt Q16254): inactive: 0.011.
The same measure, in the same setting: next, DUSP12 (UniProt Q9UNI6): inactive: -0.014.
The same measure, in the same setting: with DUT (UniProt P33316) the figure was inactive: 0.026; with DSG2 (UniProt Q14126), inactive: -0.073; with EIF1AD (UniProt Q8N9N8), inactive: 0.02.
On to DPF2 (UniProt Q92785), for which the log2 fold change was inactive: 0.013.
The same measure, in the same setting: with EEF1AKNMT (UniProt Q8N6R0) the figure was inactive: -0.026; with EDEM3 (UniProt Q9BZQ6), inactive: -0.015; with EEF1G isoform 2 (UniProt P26641), inactive: -0.028.

Compound in a further assay: CCn1c(C(=O)N(C2CC2)C2CC2)cc2c3c(ncn3C)c(Nc3cc(C)n(C)n3)nc21
Described as above. A digest of the protocol: as §1
With EEF1A1P5 (UniProt Q5VTE0), the log2 fold change was inactive: -0.031.
Still for that read-out and setting: with DRG2 (UniProt P55039) the figure was inactive: -0.023; with DTYMK (UniProt P23919), inactive: 0.059; with EARS2 (UniProt Q5JPH6), inactive: -0.018.
On the same count and under the same terms, with EIF1 (UniProt P41567) the figure was inactive: -0.05; with EEF2 (UniProt P13639), inactive: 0.012; with EIF1AX (UniProt P47813), inactive: -0.033.
Same read-out and setting: with ECH1 (UniProt Q13011) the figure was inactive: -0.007; with EEF1B2 (UniProt P24534), inactive: -0.018.
As for DUSP9 (UniProt Q99956), the log2 fold change was inactive: 0.028.
On the same count and under the same terms, next, ECHDC3 (UniProt Q96DC8): inactive: -0.034.
On the same count and under the same terms, next, DR1 (UniProt Q01658): inactive: -0.012; DPP7 (UniProt Q9UHL4): inactive: -0.028.
The same measure, in the same setting: next, DYNLT1 (UniProt P63172): inactive: -0.005; DPH2 (UniProt Q9BQC3): inactive: 0.013; DUSP23 (UniProt Q9BVJ7): inactive: 0.04.
Regarding DYNC1H1 (UniProt Q14204), the log2 fold change was inactive: 0.028.
Same read-out and setting: with EFL1 (UniProt Q7Z2Z2) the figure was inactive: 0.003; with DPY19L1, A0A1B0GW05, inactive: -0.038; with EDF1 (UniProt O60869), inactive: -0.06.
Still for that read-out and setting: with EHMT2 (UniProt A2ABF8) the figure was inactive: 0.02.
Consider E2F3 (UniProt O00716), for which the log2 fold change is inactive: 0.015.
Same read-out and setting: next, EEF1AKMT2, A0A494BZY7: inactive: 0.019; E2F4 (UniProt Q16254): inactive: -0.025; DUSP12 (UniProt Q9UNI6): inactive: 0.011.
Still for that read-out and setting: with DUT (UniProt P33316) the figure was inactive: -0.028.
On the same count and under the same terms, next, DSG2 (UniProt Q14126): inactive: 0.091; EIF1AD (UniProt Q8N9N8): inactive: 0.006.
For DPF2 (UniProt Q92785), the log2 fold change is inactive: 0.006.
Take EEF1AKNMT (UniProt Q8N6R0): the log2 fold change was inactive: 0.053.
On the same count and under the same terms, next, EDEM3 (UniProt Q9BZQ6): inactive: -0.002; EEF1G isoform 2 (UniProt P26641): inactive: 0.016.
